{"source": "patent US7928210B2", "about": "“Nucleoside based proliferation imaging markers” (Siemens Medical Solutions USA, Inc., priority 2007, dated 2011)", "test_system": "A431 tumor bearing nude mouse", "experiment": "Non-radioactive PK analysis / biodistribution in A431 tumor bearing nude mouse", "type": "in vivo", "settings": "FIG. 9", "note": "At least one read-out could not be matched to a standard name with certainty."}
{"molecule": "Cc1cn([C@H]2CC(O)[C@@H](CO)O2)c(=O)n(CCF)c1=O", "note": "(stereo partly shown) [Ta-4, 3-N-(2′-[^18F]fluoroethyl)-thymidine]", "values": [{"measurement": "Blood clearance, tumor localization, hepatic uptake, excretion", "result": "rapidly clears from the blood, localizes to the tumor, has little hepatic uptake and clears mainly via the kidneys"}]}
